Test results reported in patent publication US20080175888A1, “Combination Therapy Comprising Actinidia and Steroids and Uses Thereof” (priority 2005, published 2008).
Some entries share one result that the patent states for a list of compounds.

Test system: production of IL-13 and IFN-γ by OVA-stimulated mouse splenocytes
Experiment: Cytokine production in OVA-stimulated splenocyte cultures, ELISA (Example 3)
Format: cell-based
Settings: 3 days exposure in vitro, FIG. 5A/5B

## C[C@@H]1C[C@H]2[C@@H]3CCC4=CC(=O)C=C[C@]4(C)[C@@]3(F)[C@@H](O)C[C@]2(C)[C@@]1(O)C(=O)CO [dexamethasone]
  concentration of potent activity (suppression of IL-13 and IFN-γ): < 1 µM
